Source: ChEMBL document CHEMBL2177029, “Medicinal chemistry of A₃ adenosine receptor modulators: pharmacological activities and therapeutic implications” (J Med Chem, 2012)

Molecular target: Adenosine receptor A2a (Homo sapiens, UniProt P29274)
Assay: biochemical
Format: cell-based, CHO

`CCCCc1nc2ccccc2c2nc(-c3ccc(Br)cc3)nn12` gave an IC50 of over 10 µM.
